Reference: PMC5436826, “The PET and LIM1-2 domains of testin contribute to intramolecular and homodimeric interactions” (PLoS ONE, 2017)
These are yes or no findings as the source states them, for the method shown. In cells and extracts the contact can be indirect. These calls come from enrichment with a bait or labelling near it, and not all partners need be listed. For some assays here: Sequences can lack the tags named with a protein.

Key:
[1] = target: T1, ΔPET-GFP (human) (UniProt Q9UGI8); test: affinity purification with mass spectrometry; complexes affinity purified with a GFP-nanobody from lysates of HeLa cells expressing GFP-fused testin variants as bait; tryptic digests; PRIDE PXD005058
T1 sequence: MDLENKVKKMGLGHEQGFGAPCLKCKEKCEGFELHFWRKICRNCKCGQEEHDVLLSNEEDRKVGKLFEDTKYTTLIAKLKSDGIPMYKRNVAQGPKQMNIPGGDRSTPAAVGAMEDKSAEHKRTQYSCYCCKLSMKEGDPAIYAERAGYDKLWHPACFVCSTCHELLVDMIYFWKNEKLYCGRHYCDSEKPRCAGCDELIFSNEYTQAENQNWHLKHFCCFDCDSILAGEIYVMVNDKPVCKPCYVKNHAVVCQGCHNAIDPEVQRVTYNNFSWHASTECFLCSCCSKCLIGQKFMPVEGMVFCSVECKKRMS

[2] = target: LIM1-3-GFP (human); test: as above

B1: untagged recombinant full length (FL) testin (natural protein, human, UniProt Q9UGI8-1 1-421, looked up)
chain: MDLENKVKKMGLGHEQGFGAPCLKCKEKCEGFELHFWRKICRNCKCGQEEHDVLLSNEEDRKVGKLFEDTKYTTLIAKLKSDGIPMYKRNVMILTNPVAAKKNVSINTVTYEWAPPVQNQALARQYMQMLPKEKQPVAGSEGAQYRKKQLAKQLPAHDQDPSKCHELSPREVKEMEQFVKKYKSEALGVGDVKLPCEMDAQGPKQMNIPGGDRSTPAAVGAMEDKSAEHKRTQYSCYCCKLSMKEGDPAIYAERAGYDKLWHPACFVCSTCHELLVDMIYFWKNEKLYCGRHYCDSEKPRCAGCDELIFSNEYTQAENQNWHLKHFCCFDCDSILAGEIYVMVNDKPVCKPCYVKNHAVVCQGCHNAIDPEVQRVTYNNFSWHASTECFLCSCCSKCLIGQKFMPVEGMVFCSVECKKRMS
notes: testin, human, full length protein (residues 1-421), isoform 1 NP_056456.1; From pGEX-2TK; thrombin site between GST and FL; By SEC it is in a monomer-dimer equilibrium; also called non-tagged recombinant FL; source: E. coli BL21(DE3) pLYSstar, purified on glutathione sepharose as GST-FL, GST removed with thrombin
[1]
  binding: binds
[2]
  binding: binds
